# Laboratory results taken from US4530838A (The Salk Institute for Biological Studies, priority 1983, dated 1985).
# Assay: Boc solid-phase peptide synthesis; benzhydrylamine resin; N,N'-dicyclohexyl carbodiimide (DCCI)
# Conditions: whole synthesis, HPLC
substance,measurement,value
"PEPTIDE1{S.C.N.T.A.T.C.V.T.H.R.L.A.G.L.L.S.R.S.G.G.V.V.K.D.N.F.V.P.T.N.V.G.S.E.A.F.[am]}$PEPTIDE1,PEPTIDE1,2:R3-7:R3$$$V2.0",final purity (method not given),about 95% or greater

# Some peptides are written in HELM: one residue between dots, names in brackets for other building blocks, links after the first $.
